Values from PubChem BioAssay AID1259254 (NCATS, 2017)
This is an unselected part of about 59,000 reagents tested. Over the whole deposit, about 1,550 (2.6%) are marked active. 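G2 share is only a proxy for re-replication; each gene was hit by three separate siRNAs, and active genes were retested.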 Unmarked entries are inactive. Reagents against one gene are numbered here. Not all columns of the deposit are shown. Not given: the amount of reagent.

- Test: 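Finding genes that stop cells copying their DNA twice in one cycle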 (primary screen)
- Cell system: human HCT116 colorectal cancer cells
- Reagents: single siRNA against human genes
- Duration: 3 days
- Measured: 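Nuclei stained with Hoechst and imaged; cell-cycle phase assigned by DNA content; G2 share scaled per plate, non-targeting siRNA 0%, GMNN siRNA 100%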
- Reading the numbers: G2 robust z-score: higher = more G2 cells, more excess DNA replication
- Active means: 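Active siRNAs have a G2 robust z of 5 or more median absolute deviations over the median, which in these data means about 38% or higher of GMNN control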

{"target gene": "LEPR (leptin receptor)", "reagent": 1, "G2 robust z-score": -0.559}
{"target gene": "LEPR (leptin receptor)", "reagent": 2, "G2 robust z-score": 0.123}
{"target gene": "LEPR (leptin receptor)", "reagent": 3, "G2 robust z-score": -1.24}
{"target gene": "KIAA2013", "reagent": 1, "G2 robust z-score": 1.37}
{"target gene": "KIAA2013", "reagent": 2, "G2 robust z-score": 0.114}
{"target gene": "KIAA2013", "reagent": 3, "G2 robust z-score": 1.73}
{"target gene": "SEC62 (SEC62 preprotein translocation factor)", "reagent": 1, "G2 robust z-score": 0.406}
{"target gene": "SEC62 (SEC62 preprotein translocation factor)", "reagent": 2, "G2 robust z-score": 2.25}
{"target gene": "SEC62 (SEC62 preprotein translocation factor)", "reagent": 3, "G2 robust z-score": 1.61}
{"target gene": "ILF3 (interleukin enhancer binding factor 3)", "reagent": 1, "G2 robust z-score": 0.45}
{"target gene": "ILF3 (interleukin enhancer binding factor 3)", "reagent": 2, "G2 robust z-score": 2.11}
{"target gene": "ILF3 (interleukin enhancer binding factor 3)", "reagent": 3, "G2 robust z-score": -0.133}

Reformatted: results already given
KIAA2013 #2
- G2 robust z-score: 0.114

KIAA2013 #3
- G2 robust z-score: 1.73

The results go on.
{"target gene": "RIPOR3 (RIPOR family member 3)", "reagent": 1, "G2 robust z-score": 0.704}
{"target gene": "RIPOR3 (RIPOR family member 3)", "reagent": 2, "G2 robust z-score": 0.411}
{"target gene": "RIPOR3 (RIPOR family member 3)", "reagent": 3, "G2 robust z-score": -1.22}
{"target gene": "SYNDIG1L (synapse differentiation inducing 1 like)", "reagent": 1, "G2 robust z-score": -0.699}
{"target gene": "SYNDIG1L (synapse differentiation inducing 1 like)", "reagent": 2, "G2 robust z-score": 2.65}
{"target gene": "SYNDIG1L (synapse differentiation inducing 1 like)", "reagent": 3, "G2 robust z-score": 2.4}
{"target gene": "SYNDIG1L (synapse differentiation inducing 1 like)", "reagent": 4, "G2 robust z-score": -0.994}
{"target gene": "SYNDIG1L (synapse differentiation inducing 1 like)", "reagent": 5, "G2 robust z-score": -0.458}
{"target gene": "SYNDIG1L (synapse differentiation inducing 1 like)", "reagent": 6, "G2 robust z-score": 0.485}
{"target gene": "CREM (cAMP responsive element modulator)", "reagent": 1, "G2 robust z-score": -0.715}
{"target gene": "CREM (cAMP responsive element modulator)", "reagent": 2, "G2 robust z-score": "5.57 (active)"}
{"target gene": "CREM (cAMP responsive element modulator)", "reagent": 3, "G2 robust z-score": 0.17}
